In patent publication US20110033883A1, “IMAGING DYES AND USE THEREOF” (priority 2007, published 2011):

Tests used:
[1] = Emission intensity and lifetime in DPPG liposomes; assay type: physicochemical
[2] = Luminescence quantum yield and lifetime in buffered aqueous solution; assay type: physicochemical
[3] = Oxygen quenching of luminescence (Stern-Volmer); assay type: physicochemical
Protocol: Different oxygen concentrations were adjusted by streaming various O2—N2-mixtures through the solution until equilibrium was reached. The oxygen concentration was measured with an optical O2 electrode (Visiferm DO120, Hamilton). The fluorescence lifetime of the equilibrated dye solutions was measured in a closed-system flow cell.
In air saturated PBS solutions the lifetime drops down to 540 ns when the pic ligand is neutral, and even down to 350 ns, when the pic moiety is deprotonated. Stern-Volmer plots are linear up to air saturated solutions and then start levelling of. The Stern-Volmer quenching constants range actually vary very little with pH 2100 M^−1 for pH 10 to around 2900 M^−1 when the pic moiety is in its neutral state. The corresponding bimolecular rate constants vary between around […] when the pic moiety is deprotonated to […] when the pic moiety is in its neutral state, which is essentially the same within experimental error. This means that within the limited range of the cellular environment the O2 concentration within a cell can be assessed independently of pH using this dye.

[4] = tested on: Sp2/0-Ag 14 myeloma cells; experiment: Luminescence lifetime imaging (FLIM) of myeloma cells; assay type: cell-based, mouse

| Substance | τ (μs) in DPPG liposome in PBS buffer Biexponential decay τ1 ([1]; DPPG liposome in PBS buffer) [μs] | τ (μs) in DPPG liposome in PBS buffer Biexponential decay τ2 ([1]; DPPG liposome in PBS buffer) [μs] | emission intensity in the presence of DPPG liposomes ([1]; after 24 hours, absorbance matched solutions) | luminescence lifetime τ ([2]; PBS buffer, pH 6, PicH moiety neutral) [ns] | luminescence lifetime ([2]; air saturated PBS, pic ligand neutral) [ns] | luminescence lifetime ([2]; air saturated PBS, pic moiety deprotonated) [ns] | luminescence lifetime τ ([2]; degassed PBS, pH 11, imidazole deprotonated) [ns] | quantum yield of the emission ([2]; neutral pH (pH 7) buffered aqueous solution) | luminescence lifetime ([2]; pH 7 buffered aqueous solution, aerated) [ns] | luminescence lifetime ([2]; pH 7 buffered aqueous solution, deaerated) [ns] | luminescence lifetime from calibration plot ([2]; pH 7.5, air saturated PBS) [ns] | luminescence lifetime from calibration plot ([2]; pH 7.5, degassed aqueous solution) [ns] | Stern-Volmer quenching constant (oxygen) ([3]; pH 10) [M⁻¹] | Stern-Volmer quenching constant (oxygen) ([3]; pic moiety in its neutral state) | luminescence lifetime (FLIM) ([4]; background region, myeloma cells incubated 12 minutes) [ns] | luminescence lifetime (FLIM) ([4]; cell membrane region) [ns] | luminescence lifetime (FLIM) ([4]; cytoplasm) [ns] | luminescence lifetime (FLIM) ([4]; nucleus) [ns] |
| --- | --- | --- | --- | --- | --- | --- | --- | --- | --- | --- | --- | --- | --- | --- | --- | --- | --- | --- |
| [Ru(dppz)2(PicH2)]ClO4 [[Ru(dppz)2PICH2]^2+] | 0.36 | 0.1 | double the intensity |  |  |  |  |  |  |  |  |  |  |  |  |  |  |  |
| [Ru(bpy)2(PicH-R8)]^n+: ruthenium centre with two bipyridine ligands and one picH ligand; octaarginine coupled to pic carboxy end via Ahx spacer, amide linkage (RRRRRRRR; Ru(bpy)2 picH complex via Ahx spacer) |  |  |  | 860 | 540 | 350 | 521 | 0.06 | 480 | 775 | 451 | 779 | 2100 | around 2900 M^−1 | 513 | 452 | 540 | 709 |
